Part of at least one peptide drawing is inferred or uncertain, most often the ends. Where a SMILES comes first, the peptide text is derived from it.
Test system: multidrug resistant strains of Mycobacterium tuberculosis
Format: cell-based

`CSCC[C@H](NC(=O)[C@@H](NC(=O)[C@@H](NC(=O)[C@H](CCCCN)NC(=O)[C@H](C)N)C(C)C)[C@@H](C)O)C(=O)N[C@H](C(=O)N[C@@H](CS)C(=O)N[C@@H](CO)C(=O)N[C@@H](C)C(=O)N[C@@H](CO)C(N)=O)[C@@H](C)O` [KM] (H-AKVTMTCSAS-NH2) was tested, and the “effectiveness” value was “effective”.

— US7722876B2 (priority 2002, dated 2010)
